{
  "sequences": {"note": "Amino acid sequences for entries named in this document (tags omitted). Residues count along the entry.", "UniProt A0A1B3D787, 27-341, stated change not applied": "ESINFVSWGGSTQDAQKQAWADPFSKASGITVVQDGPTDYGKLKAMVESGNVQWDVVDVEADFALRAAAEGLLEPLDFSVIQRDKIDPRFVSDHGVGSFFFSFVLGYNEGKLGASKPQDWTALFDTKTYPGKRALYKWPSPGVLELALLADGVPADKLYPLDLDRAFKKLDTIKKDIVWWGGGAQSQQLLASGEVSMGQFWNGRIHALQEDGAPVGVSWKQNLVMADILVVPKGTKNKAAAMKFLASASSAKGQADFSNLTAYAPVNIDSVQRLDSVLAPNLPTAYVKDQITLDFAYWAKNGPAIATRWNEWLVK"},
  "source": "paper PMC12999171",
  "about": "(eLife, 2026)",
  "key": {"iGABASnFR1": {"biological_target": "iGABASnFR1 (Pseudomonas fluorescens, UniProt A0A1B3D787, F126L/N285A)", "assay": "biochemical", "assay_type": "binding"}, "iGABASnFR2n": {"biological_target": "iGABASnFR2n (Pseudomonas fluorescens, UniProt A0A1B3D787, F126L/F129H/N285A/S124A)", "assay": "biochemical", "assay_type": "binding"}},
  "data": [
    {"smiles": "N[C@@H](Cc1ccc(O)cc1)C(=O)O", "note": "[tyrosine]", "values": [
      {"measurement": "EC50", "setting": "iGABASnFR1", "result": 2.51, "unit": "mM"},
      {"measurement": "EC50", "setting": "iGABASnFR2n", "result": 9, "unit": "mM"}
    ]}
  ]
}
